Results from patent publication US12415868 (MINERVA BIOTECHNOLOGIES, dated 2025).
Results are given in words; binding and its absence hold for the method and conditions named. Some binding calls cover weakened binding; strength is not graded here.

Key:
recombinant human NME7AB [1] = target: T1, recombinant human NME7AB (human, UniProt Q9Y5B8 92-376); experiment: selection of the monoclonal antibodies; assay not named here
T1 construct: also called NME-AB; NME7 (in several passages)
T1 sequence: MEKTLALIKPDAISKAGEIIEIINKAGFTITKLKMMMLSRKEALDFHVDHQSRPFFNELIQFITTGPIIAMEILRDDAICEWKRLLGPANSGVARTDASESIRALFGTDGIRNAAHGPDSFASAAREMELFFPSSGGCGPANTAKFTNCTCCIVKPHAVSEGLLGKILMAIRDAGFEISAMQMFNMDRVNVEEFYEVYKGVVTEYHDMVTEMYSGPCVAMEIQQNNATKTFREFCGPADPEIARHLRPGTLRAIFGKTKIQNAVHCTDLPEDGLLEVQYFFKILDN

recombinant human NME7AB [2] = target: T1, recombinant human NME7AB; experiment: ELISA, plate coated with recombinant NME7AB (FIG. 24)
Description: The surface of the multi-well plate was coated with a recombinant $NME7AB$. Anti-$NME7AB$ antibodies were separately added to wells. Standard washes were performed and visualized by adding an HRP-conjugated secondary antibody. […] 7 of the 10 new anti-NME7 antibodies bound strongly to NME7$AB$. […] The surface of the multi-well plate was coated with a recombinant NME1-S120G dimers, which are also known to bind to the MUC1* extra cellular domain. Anti-NME7$AB$ antibodies were separately added to wells. Standard washes were performed and visualized by adding an HRP-conjugated secondary antibody.

binding (recombinant human NME7AB [1]): binds | binding (recombinant human NME7AB [2]): binds
B1: anti-NME7 monoclonal antibody 5F3A5D4 (antibody, V domains shown)
VH: VQLQQSGPDLVKPGTSVKISCKTSGNTFTEYTMHWVKQSHGKSLEWIGGFNPNNGVTNYNQKFKGKATLTVDKSSSTAYMELRSLTSEDSAVYYCARRYYHSTYVFYFDSWGQGTTLTVSS
VL: DIQMTQTTSSLSASLGDRVTISCSASQGISNYLNWFQQKPDGTIKLLIYYTSSLHSGVPSRFSGSGSGTDYSLTISNVEPEDIATYYCQQYSKLPYTFGGGTKLEIKR
